# Experimental data as given in the supplement of paper PMC4635364.
# Where a name gives a salt, the structure may show the parent alone. The list shows a part of the results. Repeats in this data set agree poorly, so a single value says little.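 ReNCell VM, a human fetal ventral-midbrain neural progenitor line, was differentiated without mitogens. Blinded raters scored images stained for doublecortin (early neurons) or tyrosine hydroxylase (dopaminergic neurons) against untreated wells (0 = no change). Scores were averaged across repeats and both raters, and compounds averaging 2 or more were selected as hits for retesting.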
# Experiments:
# ReNCell VM [1] = assay: neuronal differentiation score (DCX+ cell fraction vs untreated, manual image score) (score (-3 to 3)); higher = more neuronal differentiation; conditions: 2 uM, 2 weeks
# ReNCell VM [2] = assay: dopaminergic neuron differentiation score (TH+ cell fraction vs untreated, manual image score) (score (0 to 3)); higher = more TH+ dopaminergic neuron differentiation; conditions: 2 uM, 4 weeks, BDNF 10 ng/ml + GDNF 10 ng/ml
smiles,measurement,setting,value
CC(=O)O[C@H]1C[C@@]2(C)[C@@H](C[C@@H](O)[C@H]3[C@@]4(C)CC[C@@H](O)[C@@H](C)[C@@H]4CC[C@@]32C)/C1=C(\CCC=C(C)C)C(=O)O [fusidic acid],neuronal differentiation score,ReNCell VM [1]; library: Natural,inactive: 0
same,dopaminergic neuron differentiation score,ReNCell VM [2]; library: Natural,inactive: 0
C=C1C[C@]23C[C@@]1(O)CC[C@H]2[C@@]12C=C[C@H](O)[C@@](C)(C(=O)O1)[C@H]2[C@@H]3C(=O)O [gibberellic acid],neuronal differentiation score,ReNCell VM [1]; library: Natural,inactive: 0
same,dopaminergic neuron differentiation score,ReNCell VM [2]; library: Natural,inactive: 0
COC(=O)C(N)CS (stereo not given),neuronal differentiation score,ReNCell VM [1]; library: Spectrum,inactive: 0
same,dopaminergic neuron differentiation score,ReNCell VM [2]; library: Spectrum,inactive: 0
CC(=O)C1=C(O)C=C2Oc3c(C(C)=O)c(O)c(C)c(O)c3[C@@]2(C)C1=O [(+)-Usnic acid],neuronal differentiation score,ReNCell VM [1]; library: Phytochemical,inactive: 0
same,dopaminergic neuron differentiation score,ReNCell VM [2]; library: Phytochemical,inactive: 0
CCCCC/C=C\C[C@@H](O)/C=C/c1cccc(C[C@@H](O)CCCCO)n1,neuronal differentiation score,ReNCell VM [1]; library: LOPAC,inactive: 0
same,dopaminergic neuron differentiation score,ReNCell VM [2]; library: LOPAC,inactive: 0
O=c1ccc2ccc(O)c(O)c2o1 [Daphnetin],neuronal differentiation score,ReNCell VM [1]; library: LOPAC,inactive: 0
same,dopaminergic neuron differentiation score,ReNCell VM [2]; library: LOPAC,inactive: 0
C=C(C)[C@@H]1CC[C@]2(CO)CC[C@]3(C)[C@H](CC[C@@H]4[C@@]5(C)CC[C@H](O)C(C)(C)[C@@H]5CC[C@]43C)[C@@H]12,neuronal differentiation score,ReNCell VM [1]; library: Spectrum,inactive: 0
same,dopaminergic neuron differentiation score,ReNCell VM [2]; library: Spectrum,inactive: 0
COc1cc2ncn(-c3cc(OCc4ccccc4C(F)(F)F)c(C(N)=O)s3)c2cc1OC,neuronal differentiation score,ReNCell VM [1]; library: Tocriscreen,inactive: 0
same,dopaminergic neuron differentiation score,ReNCell VM [2]; library: Tocriscreen,inactive: 0
O=C(O)c1cccnc1 [Niacin],neuronal differentiation score,ReNCell VM [1]; library: Prestwick,inactive: 0
same,dopaminergic neuron differentiation score,ReNCell VM [2]; library: Prestwick,inactive: 0
CNC(=O)c1cc2c(cn1)[nH]c1ccccc12 [N-Methyl-beta-carboline-3-carboxamide],neuronal differentiation score,ReNCell VM [1]; library: LOPAC,inactive: 0
same,dopaminergic neuron differentiation score,ReNCell VM [2]; library: LOPAC,inactive: 0
COC(=O)C1=C(C)NC(C)=C([N+](=O)[O-])[C@H]1c1ccccc1C(F)(F)F,neuronal differentiation score,ReNCell VM [1]; library: Tocriscreen,inactive: 0
same,dopaminergic neuron differentiation score,ReNCell VM [2]; library: Tocriscreen,inactive: 0
O=C(O)[C@]1(O)C[C@@H](O)[C@@H](O)[C@H](O)C1 [Quinic acid],neuronal differentiation score,ReNCell VM [1]; library: Phytochemical,inactive: 0
same,dopaminergic neuron differentiation score,ReNCell VM [2]; library: Phytochemical,inactive: 0
C[C@H]1C[C@H]2[C@@H]3CCC4=CC(=O)C=C[C@]4(C)[C@@]3(F)[C@@H](O)C[C@]2(C)[C@@]1(O)C(=O)COP(=O)(O)O,neuronal differentiation score,ReNCell VM [1]; library: Spectrum,inactive: 0
same,dopaminergic neuron differentiation score,ReNCell VM [2]; library: Spectrum,inactive: 0
CC(=O)c1ccc(S(=O)(=O)NC(=O)NC2CCCCC2)cc1,neuronal differentiation score,ReNCell VM [1]; library: Spectrum,inactive: 0
same,dopaminergic neuron differentiation score,ReNCell VM [2]; library: Spectrum,inactive: 0
CC[C@H]1OC(=O)[C@H](C)[C@@H](O[C@H]2C[C@@](C)(OC)[C@@H](O)[C@H](C)O2)[C@H](C)[C@@H](O[C@@H]2O[C@H](C)C[C@H](N(C)C)[C@H]2O)[C@](C)(O)C[C@@H](C)[C@@H]2N[C@@H](COCCOC)O[C@H]([C@H]2C)[C@]1(C)O [Dirithromycin],neuronal differentiation score,ReNCell VM [1]; library: Prestwick,inactive: 0
same,dopaminergic neuron differentiation score,ReNCell VM [2]; library: Prestwick,inactive: 0
OC1CCC(Nc2nc(-c3ccccc3)nc3[nH]ccc23)CC1 (stereo not given),neuronal differentiation score,ReNCell VM [1]; library: Tocriscreen,inactive: 0
same,dopaminergic neuron differentiation score,ReNCell VM [2]; library: Tocriscreen,active: 3
CC(C)[C@@H](C)/C=C/[C@@H](C)[C@H]1CC[C@H]2C3=CC=C4C[C@@H](O)CC[C@]4(C)[C@H]3CC[C@]12C,neuronal differentiation score,ReNCell VM [1]; library: Spectrum,inactive: -1
same,dopaminergic neuron differentiation score,ReNCell VM [2]; library: Spectrum,inactive: 1
CCSc1ccc2c(c1)N(CCCN1CCN(C)CC1)c1ccccc1S2 [Thiethylperazine dimalate],neuronal differentiation score,ReNCell VM [1]; library: Prestwick,inactive: 0
same,dopaminergic neuron differentiation score,ReNCell VM [2]; library: Prestwick,inactive: 0
CC(=O)O[C@H]1CC(=O)OC(C)(C)[C@@H]2CC(=O)[C@]3(C)[C@H](CC[C@@]4(C)[C@@H](c5ccoc5)OC(=O)[C@H]5O[C@]543)[C@@]12C [nomilin],neuronal differentiation score,ReNCell VM [1]; library: Natural,active: 3
same,dopaminergic neuron differentiation score,ReNCell VM [2]; library: Natural,inactive: 0
O=C(CCCl)NCCc1ccccc1,neuronal differentiation score,ReNCell VM [1]; library: Spectrum,inactive: 0
same,dopaminergic neuron differentiation score,ReNCell VM [2]; library: Spectrum,inactive: 0
CC(C)[C@H](CO)Nc1nc(Nc2cccc(Cl)c2)c2ncn(C(C)C)c2n1 [Purvalanol A],neuronal differentiation score,ReNCell VM [1]; library: Tocriscreen,inactive: 0
same,dopaminergic neuron differentiation score,ReNCell VM [2]; library: Tocriscreen,inactive: 0
O=C(O)COc1cccc(-c2ocnc2-c2nc(-c3ccccc3)c(-c3ccccc3)o2)c1,neuronal differentiation score,ReNCell VM [1]; library: Tocriscreen,inactive: 0
same,dopaminergic neuron differentiation score,ReNCell VM [2]; library: Tocriscreen,inactive: 0
O=C(c1ccc(OCCCc2c[nH]cn2)cc1)C1CC1 [Ciproxifan hydrochloride],neuronal differentiation score,ReNCell VM [1]; library: LOPAC,inactive: 0
same,dopaminergic neuron differentiation score,ReNCell VM [2]; library: LOPAC,inactive: 0
c1ccc(-c2n[nH]c3c2oc2ccccc23)cc1,neuronal differentiation score,ReNCell VM [1]; library: Tocriscreen,inactive: 0
same,dopaminergic neuron differentiation score,ReNCell VM [2]; library: Tocriscreen,inactive: 0
CC(=O)OCC(=O)[C@@]1(O)CC[C@H]2[C@@H]3CCC4=CC(=O)C=C[C@]4(C)[C@@]3(F)[C@@H](O)C[C@@]21C,neuronal differentiation score,ReNCell VM [1]; library: Spectrum,inactive: 0
same,dopaminergic neuron differentiation score,ReNCell VM [2]; library: Spectrum,inactive: 0
CC(C)(C)NCC(O)COc1cccc2c1CC(O)C(O)C2 (stereo not given),neuronal differentiation score,ReNCell VM [1]; library: Spectrum,inactive: 0
same,dopaminergic neuron differentiation score,ReNCell VM [2]; library: Spectrum,inactive: 0
CN1[C@@H]2CC[C@H]1C[C@@H](OC(=O)C(O)c1ccccc1)C2 (mixture of isomers) [DL-Homatropine hydrobromide],neuronal differentiation score,ReNCell VM [1]; library: LOPAC,inactive: 0
same,dopaminergic neuron differentiation score,ReNCell VM [2]; library: LOPAC,inactive: 0
CN(C)[C@@H]1CCc2[nH]c3ccc(NC(=O)c4ccc(F)cc4)cc3c2C1,neuronal differentiation score,ReNCell VM [1]; library: Tocriscreen,inactive: 0
same,dopaminergic neuron differentiation score,ReNCell VM [2]; library: Tocriscreen,inactive: 0
OC[C@H]1O[C@H](O[C@]2(CCl)O[C@H](CCl)[C@@H](O)[C@@H]2O)[C@H](O)[C@@H](O)[C@H]1Cl,neuronal differentiation score,ReNCell VM [1]; library: Spectrum,inactive: 1
same,dopaminergic neuron differentiation score,ReNCell VM [2]; library: Spectrum,inactive: 0
COc1c(O)cc2oc3cc(O)c(CC=C(C)C)c(O)c3c(=O)c2c1CC=C(C)C [alpha-MANGOSTIN],neuronal differentiation score,ReNCell VM [1]; library: Spectrum,inactive: 0
same,dopaminergic neuron differentiation score,ReNCell VM [2]; library: Spectrum,inactive: 0

# Pulled one by one from the list above, 4 records:
smiles,measurement,setting,value
COc1c(O)cc2oc3cc(O)c(CC=C(C)C)c(O)c3c(=O)c2c1CC=C(C)C [alpha-MANGOSTIN],neuronal differentiation score,ReNCell VM [1]; library: Spectrum,inactive: 0
CCSc1ccc2c(c1)N(CCCN1CCN(C)CC1)c1ccccc1S2 [Thiethylperazine dimalate],dopaminergic neuron differentiation score,ReNCell VM [2]; library: Prestwick,inactive: 0
OC1CCC(Nc2nc(-c3ccccc3)nc3[nH]ccc23)CC1 (stereo not given),neuronal differentiation score,ReNCell VM [1]; library: Tocriscreen,inactive: 0
CN1[C@@H]2CC[C@H]1C[C@@H](OC(=O)C(O)c1ccccc1)C2 (mixture of isomers) [DL-Homatropine hydrobromide],neuronal differentiation score,ReNCell VM [1]; library: LOPAC,inactive: 0
